From PubChem BioAssay AID1439 (NMMLSC, 2008)
Screen size: about 220,000 compounds; about 770 (0.35%) were called active. The shares of active, inactive and inconclusive entries below differ from those in the screen. Cut-off read from the data, not from the text of the source: active = binding response below about 49% or above about 150%; inconclusive = no clear call, values can overlap the other calls; inactive = in between.

Amino acid sequences for entries named in this document (tags omitted).
UniProt P09471, whole entry, looked up: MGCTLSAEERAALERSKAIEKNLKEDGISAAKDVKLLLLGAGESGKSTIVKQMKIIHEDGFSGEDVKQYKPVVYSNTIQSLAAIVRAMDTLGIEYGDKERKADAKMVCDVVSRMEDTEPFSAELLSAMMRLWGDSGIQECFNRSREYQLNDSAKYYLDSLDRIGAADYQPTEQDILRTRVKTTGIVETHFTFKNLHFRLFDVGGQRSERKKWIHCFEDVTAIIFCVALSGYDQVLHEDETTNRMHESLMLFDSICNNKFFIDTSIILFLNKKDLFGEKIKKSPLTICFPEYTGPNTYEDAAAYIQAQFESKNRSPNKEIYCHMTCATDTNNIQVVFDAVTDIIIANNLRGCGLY

target: Guanine nucleotide-binding protein G(o) subunit alpha (Homo sapiens) (UniProt P09471); experiment: RGS7-Galphao binding modulators, primary screen, biochemical, multiplexed bead flow cytometry (AID 1439); conditions: at 10 µM, actives lie on both sides;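 note: fluorescent Galphao held in activated GDP-AlF4 state binding bead-coupled RGS7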

| Compound | binding response (% of control) |
| --- | --- |
| NC(=O)C1CCN(C(=O)Nc2csc3ccccc23)CC1 | inconclusive: -135% |
| Cc1c(CNCC(C)c2ccccc2)c(C(=O)O)c(C)n1Cc1ccccc1 (stereo not drawn) | inactive: 93% |
| CCOC(=O)Cc1csc(NC(=O)CCC(=O)O)n1 | inconclusive: 94.9% |
| O=C(c1cccc([N+](=O)[O-])c1)N1CCCN(C(=O)c2cccc([N+](=O)[O-])c2)CC1 | inactive: 103% |
| CC1CC(=O)Nc2ccccc2N1C(=O)CN1CCN(c2ccccc2)CC1 (stereo not drawn) | inconclusive: 95.2% |
| Cc1nc2ncnn2c(N2CCCC(C(=O)Nc3ccccc3Br)C2)c1C (stereo not drawn) | inactive: 108% |
| c1cnc(N2CCN(Cc3ccc4c(c3)OCO4)CC2)cn1 | inconclusive: 107% |
| CCOC(=O)C1CN(S(C)(=O)=O)c2cc(CC(=O)OC)ccc2O1 (stereo not drawn) | inconclusive: 106% |
| COc1ccc(CCC(=O)O)c(O)c1 | inconclusive: 147% |
| C(=N\N1CCN(c2ccccc2)CC1)/c1ccccc1 | inconclusive: 95.7% |
| COc1ccc(NC(=O)c2nc(C)c(C3(C)CC(c4ccccc4)=NO3)s2)cc1 (stereo not drawn) | inconclusive: 96.8% |
| CNC(=O)COC(=O)/C=C/c1cn(-c2ccccc2)nc1-c1ccc(C)o1 | inconclusive: 135% |
| CC(=O)Nc1ccc(-c2cc(C(=O)O)c3ccc(C)cc3n2)cc1 | inconclusive: 83.5% |
| CN(C)c1cccc(C(=O)NCc2ccccc2Cl)c1 | inconclusive: 120% |
| CCc1nnc2n1N=C(c1ccc([N+](=O)[O-])cc1)CS2 | inconclusive: 28.1% |
| O=C(c1cc(C(=O)N2CCOCC2)c2nc3ccccc3n2c1)c1ccccc1O | inconclusive: 93% |
| CC#CCN1c2ccccc2[C@]23C[C@@H](C(=O)OC)N(C(=O)c4cc(C)oc4C)C2=NC(C(=O)OC)=C(C(=O)OC)[C@H]13 | inconclusive: 112% |
| O=C(Nc1ccc(N2CCN(c3ncccc3C(F)(F)F)CC2)nc1)c1cccs1 | inconclusive: 104% |
| O=C(O)C1CCCCC1C(=O)NC(c1ccccc1)c1ccccc1 (stereo not drawn) | inconclusive: 109% |
| CCOC(=O)c1c(N)nn(C(=O)c2ccccc2)c1-c1ccccc1 | inconclusive: 75.8% |
| CSc1nnc(CCNC(=O)OC(C)(C)C)o1 | inconclusive: 82.4% |
| Cn1ccc(CC(=O)N2CCC(N3CCC(C(=O)N4CCCC4)CC3)CC2)c1 | inconclusive: 38.3% |
| O=c1oc2ccccc2c(O)c1C=Nc1cccnc1 | inactive: 106% |
| C/C(=N\NC(=O)c1ccn(C)n1)c1cccc(NC(=O)c2ccc(C)s2)c1 | inactive: 99.5% |

3 neighbouring records out of the list so far, for reference:

| Compound | binding response (% of control) |
| --- | --- |
| NC(=O)C1CCN(C(=O)Nc2csc3ccccc23)CC1 | inconclusive: -135% |
| Cc1c(CNCC(C)c2ccccc2)c(C(=O)O)c(C)n1Cc1ccccc1 (stereo not drawn) | inactive: 93% |
| CCOC(=O)Cc1csc(NC(=O)CCC(=O)O)n1 | inconclusive: 94.9% |

Carrying on:

| Compound | binding response (% of control) |
| --- | --- |
| COc1ccccc1CCNC(=O)Cc1cccs1 | inconclusive: 108% |
| O=C(NCc1ccc2c(c1)OCO2)C1CCN(c2nccc(C(F)(F)F)n2)CC1 | inconclusive: 106% |
| CC(C)(C)CN1CCNC(=O)C1CC(=O)N1CCN(c2ccccc2)CC1 (stereo not drawn) | inconclusive: 111% |
| CC(C(=O)NC(C)(C)C)N(Cc1cccs1)C(=O)CCN1CCc2ccccc21 (stereo not drawn) | inactive: 102% |
| CCOC(=O)c1cccnc1NC(=O)c1ccccc1 | inactive: 96.3% |
| Cc1cccc(NC(=S)N(C)C)c1C | inconclusive: 85.2% |
| CCCNC(=O)COC(=O)/C=C/c1ccc(C)o1 | inconclusive: 100% |
| O=C(CCCn1c(=O)[nH]c2ccsc2c1=O)Nc1ccc(F)cc1 | inconclusive: 106% |
| COc1cccc(C(=O)Nc2ccc(Oc3cccc(C(F)(F)F)c3)nc2)c1 | inconclusive: -292% |
| O=c1[nH]c(CSc2ncnc3sc(-c4ccccc4)cc23)nc2ccccc12 | inconclusive: 129% |
| CCC(C)c1ccccc1NC(=O)c1cccnc1 (stereo not drawn) | inactive: 105% |
| Cc1ccc(NNC(=O)c2c(F)cccc2Cl)cc1Cl | inconclusive: 164% |
| Cc1[nH][nH]c(=O)c1C(c1ccc(-c2ccccc2C(=O)O)o1)c1c(C)[nH][nH]c1=O | inconclusive: 99.7% |
| C(=N\Nc1ccc2ccccc2n1)/c1ccc2c(c1)OCCO2 | inactive: 111% |
| O=C(NC(Cc1ccc2c(c1)OCO2)C(=O)NC(Cc1ccccc1)C(=O)O)c1ccccc1 (stereo not drawn) | inactive: 102% |
| O=C(Nc1ccccc1)N1CCCN(c2c(Cl)cncc2Cl)CC1 | inconclusive: 69.2% |
| CC(C)(C)OC(=O)N1CCCN(C(=O)Nc2ccc(C(F)(F)F)cc2)CC1 | inconclusive: 143% |
| O=C(Nc1nnc(Cc2ccc(Cl)cc2)s1)c1ccncc1 | inconclusive: 37.3% |
| CCCCOc1ccc(C2CCC(C(C)=O)C(C)C2)cc1 (stereo not drawn) | inconclusive: 99.1% |
| CSc1c(-c2ccccn2)c(N)nn1C(=O)C1CC1 | inconclusive: 139% |
| C/C(=N\NC(=O)OC(C)(C)C)c1ccc[nH]1 | inconclusive: 85.3% |
| NS(=O)(=O)c1ccc(CNC(=O)c2cc(-c3ccccc3)nc3ccccc23)cc1 | inconclusive: 113% |
| CCc1nnc(NC(=O)C2CCCN2C(=O)NC2CCCCC2)s1 (stereo not drawn) | inactive: 102% |
| CCOCC(=O)Nc1c(C(=O)Nc2ccc3c(c2)OCCO3)oc2ccccc12 | inactive: 132% |

| Compound | binding response (% of control) |
| --- | --- |
| COC(=O)c1cc(C(=O)OCC(=O)Nc2cc(C)on2)cc([N+](=O)[O-])c1 | inconclusive: 178% |
| N=C(N)c1ccc(/C=C/c2ccc(C(=N)N)cc2O)cc1 | inconclusive: 125% |
| O=C(Cc1cccs1)N/N=C/c1ccccc1 | inconclusive: 108% |
| COc1cc(OC)nc(NC(=O)CCl)n1 | inactive: 100% |
| CC(=O)Nc1sc(N/N=C\c2ccc(O)cc2)nc1-c1cccs1 | inconclusive: 107% |
| NS(=O)(=O)c1ccc(NC(=O)COC(=O)C2CCCCC2)cc1 | inconclusive: 89.8% |
| c1ccc(C2=Nc3ccccc3SC2c2nc3ccccc3[nH]2)cc1 (stereo not drawn) | inactive: 102% |
| Cc1ccc(N(C)C(=O)c2ccc(CNc3c(N4CCC(C)CC4)c(=O)c3=O)cc2)cc1 | inconclusive: 93.3% |
| CC(C)c1onc(C(=O)N2CCCCC2C)c1[N+](=O)[O-] (stereo not drawn) | active: 23.3% |
| CCOc1ccc(NC(=O)Nc2ccc(Cc3ccncc3)cc2)cc1 | inconclusive: 104% |
| CCOC(=O)Nc1ccc(C(=O)/C=C/c2ccccc2)cc1 | inconclusive: 100% |
| CSc1nnc(-c2cccn(Cc3ccccc3)c2=O)o1 | inconclusive: 93.4% |
| O=C(CCSCc1ccc(Cl)cc1)NCCc1ccccc1 | inactive: 96.7% |
| CN(CCO)c1ncnc2c1sc1nc(N3CCOCC3)c3c(c12)CCC3 | inconclusive: -47.6% |
| Cc1ccc(N(C(C)C(=O)NCc2ccncc2)S(C)(=O)=O)cc1C (stereo not drawn) | inconclusive: 102% |
| CN(C)C(=S)Nc1cccc(F)c1 | inconclusive: 98.5% |
| CC(OC(=O)CCCc1nc2ccccc2s1)C(N)=O (stereo not drawn) | inactive: 100% |
| Cc1cccc(NC(=O)c2nc[nH]c2C(=O)N[C@@H](CC(C)C)C(=O)OC(C)(C)C)c1 | inconclusive: 112% |
| CCOC(=O)C(C)n1cnc2c(nnn2-c2cccc(Cl)c2)c1=O (stereo not drawn) | inactive: 99% |
| COc1cc(/C=C/C(=O)O)cc2c1OCCO2 | inconclusive: 95.3% |
| COc1ccc(Br)cc1[C@H]1[C@@H]2C=CCC[C@@]2(C)C(=O)N1Cc1ccccc1 | inconclusive: 121% |
| CCOC(=O)/C(C#N)=C/c1cc2cc(C)c(C)cc2nc1Cl | inconclusive: 131% |
| NC(=O)COC(=O)c1ccc(S(=O)(=O)NCc2ccco2)cc1 | inconclusive: 93.8% |
| O=C(/C=C/c1ccco1)N(Cc1ccc(F)cc1)C1CCS(=O)(=O)C1 (stereo not drawn) | inconclusive: 111% |

| Compound | binding response (% of control) |
| --- | --- |
| COc1cc(OC)nc(NC(=O)COC(=O)c2cccc(Cl)c2)n1 | inconclusive: 108% |
| Cc1ccc2oc(=O)n(CC(=O)c3ccc(F)cc3)c2c1 | inconclusive: 107% |
| CCN(CC(=O)NC(C)C)C(=O)[C@H](C)NC(=O)c1ccc(Br)cc1 | inactive: 93.5% |
| CCCn1c(SCC(=O)Nc2cccc(S(=O)(=O)N3CCCC3)c2)n[nH]c1=O | inconclusive: 102% |
| CC(C)CN=CC1=C(O)c2ccccc2C1=O | inconclusive: 79.8% |
| O=C1Nc2ccccc2C1Cc1ccccn1 (stereo not drawn) | inconclusive: 211% |
| Oc1ccccc1/C=N/N1CCCCC1 | inconclusive: 107% |
| Cc1occc1C(=O)N/N=C/c1ccccc1[N+](=O)[O-] | inconclusive: 85.7% |
| NC(=O)c1nc(-c2cccs2)nc2c1[nH]c(=O)n2-c1ccc(F)cc1 | inactive: 94.8% |
| COc1ccc2c(c1)C(C)=CC(C)(C)N2S(=O)(=O)c1ccc(Br)cc1 | inactive: 94.7% |
| O=C(COc1ccc(S(=O)(=O)N2CCOCC2)cc1)N1CCc2ccccc2C1 | inconclusive: 86.5% |
| Cc1cc(C)n2ncc(/C(N)=N/OC(=O)Nc3ccc(Cl)cc3)c2n1 | inconclusive: 105% |
| CCN1C(=O)N(S(=O)(=O)C(F)(F)F)[C@@H](c2ccccc2)C(C(=O)OC)=C1C | inconclusive: 91.4% |
| O=C1NC(=S)S/C1=C\C=C\c1ccc([N+](=O)[O-])o1 | inconclusive: 71.8% |
| O=c1c2ccccc2nc2n1C(CBr)CN2 (stereo not drawn) | inconclusive: 104% |
| O=C(CN1C(=O)NC2(CCCCC2)C1=O)N1CCc2ccccc2C1 | inconclusive: 106% |
| Nc1nc(-c2c(Cl)cccc2Cl)no1 | inconclusive: 246% |
| Cc1ccnc(SCC(=O)c2cc3ccccc3o2)n1 | inconclusive: 107% |
| COc1ccc(-c2ccn(-c3cccc(F)n3)n2)cc1 | inconclusive: 98.1% |
| COc1ccc(S(=O)(=O)N2CCOCC2)cc1NC(=O)Cc1ccccc1Cl | inactive: 107% |
| Cc1cc(C(=O)N/N=C/c2ccc(O)c(O)c2O)c(C)n1-c1ccccc1 | inconclusive: 84.5% |
